From US8779195B2, “Polyamine derivatives” (Nihon University, priority 2006, dated 2014)
At least one read-out could not be matched to a standard name with certainty.

Test system: mouse convulsion induced by NMDA
Test: suppression of NMDA-induced convulsion in mouse (permeability through the blood brain barrier)
Type: in vivo
Conditions: concluded from convulsion suppression in mouse
Method: Polyamine derivatives according to the present invention were evaluated for permeability through the blood brain barrier.
When 100 mg/kg NMDA was injected into a mouse abdominal cavity, convulsion is induced several minutes later. Then, the convulsion suppression effect of a polyamine derivative on mouse convulsion induced by NMDA was investigated.
When 0.5 mg/kg TsPDG and BsPDG were intravenously administered into a mouse 30 minutes before NMDA injection, the time of convulsion induced by NMDA was reduced by 43% and 39%. This reduction rate of convulsion time was equivalent to that (38%) when 10 mg/kg memantine intravenously administered.

| SMILES | permeability through the blood brain barrier |
| --- | --- |
| CCCCS(=O)(=O)NCCCCNCCCCNCCCCNC(=N)N [BsPDG] | has permeability through the blood blain barrier |
| Cc1ccc(S(=O)(=O)NCCCCNCCCCNCCCCNC(=N)N)cc1 [TsPDG] | has permeability through the blood blain barrier |
